Results deposited as PubChem BioAssay AID743448 (Peter MacCallum Cancer Centre, 2014).
Test: 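Find knock-downs giving vorinostat-specific cell death in several colon cancer lines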 (follow-up of hits). System: four human colon cancer cell lines: HCT116-VR (vorinostat-resistant HCT116 derivative), SW480, SW620 and LIM1215. Reagent: siRNA pool against human genes, 40 nM siRNA pool. Duration: drug added two days after transfection, read one day later. Conditions: vorinostat 2.5 µM on one half of each plate, etoposide 5 µM on the other half. Cell line and drug panel: SW620 cells with etoposide. Measurement: 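Caspase 3/7 activity by luminescence and live-cell viability by fluorescence, each given as a ratio to mock-transfected wells and as a robust z-score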. Direction: caspase ratio to mock: higher = more caspase activity than mock; viability ratio to mock: higher = more live cells than mock. Hit rule: 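a row is a hit if caspase relative to mock is 1.6 or above or viability relative to mock is 0.75 or below; wells dying heavily without drug are not called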. Calls: active = caspase or viability hit in this panel; inactive = no change, or unhealthy well.
Shown is an unselected part of the 106 reagents, under one of the conditions tested. 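Calls are per line and drug panel including etoposide, not vorinostat-specific; gene picks needed hits in two or more extra lines with vorinostat versus etoposide.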 Unmarked entries are inactive. Further read-outs or replicates are left out here. Reagent sequences are not shown.

AQR (aquarius intron-binding spliceosomal factor): caspase ratio to mock = 1.75 (active); viability ratio to mock = 0.54
ZNF441 (zinc finger protein 441): caspase ratio to mock = 1.36; viability ratio to mock = 0.9
ANO9 (anoctamin 9): caspase ratio to mock = 1.02; viability ratio to mock = 0.96
POLR2I (RNA polymerase II subunit I): caspase ratio to mock = 1.18; viability ratio to mock = 0.84
LAD1 (ladinin 1): caspase ratio to mock = 0.94; viability ratio to mock = 0.96
MRPL19 (mitochondrial ribosomal protein L19): caspase ratio to mock = 2.03 (active); viability ratio to mock = 1
AP5S1 (adaptor related protein complex 5 subunit sigma 1): caspase ratio to mock = 0.94 (active); viability ratio to mock = 0.64
CNOT1 (CCR4-NOT transcription complex subunit 1): caspase ratio to mock = 1.54; viability ratio to mock = 0.89
POLR2L (RNA polymerase II, I and III subunit L): caspase ratio to mock = 1.03; viability ratio to mock = 0.76
OR6T1 (olfactory receptor family 6 subfamily T member 1): caspase ratio to mock = 1.58; viability ratio to mock = 0.96
RBM42 (RNA binding motif protein 42): caspase ratio to mock = 0.5; viability ratio to mock = 0.82
LBHD1 (LBH domain containing 1): caspase ratio to mock = 0.9; viability ratio to mock = 0.95
SEMA4F (ssemaphorin 4F): caspase ratio to mock = 1.53; viability ratio to mock = 0.99
IQSEC1 (IQ motif and Sec7 domain ArfGEF 1): caspase ratio to mock = 1.42; viability ratio to mock = 0.86
NPEPPS (aminopeptidase puromycin sensitive): caspase ratio to mock = 0.78 (active); viability ratio to mock = 0.7
CDK10 (cyclin dependent kinase 10): caspase ratio to mock = 1.54; viability ratio to mock = 0.86
KIR2DL1: caspase ratio to mock = 0.92; viability ratio to mock = 1.14
SIN3A (SIN3 transcription regulator family member A): caspase ratio to mock = 1.26; viability ratio to mock = 1.04
H1-5 (H1.5 linker histone, cluster member): caspase ratio to mock = 1.6 (active); viability ratio to mock = 0.65
MSANTD1 (Myb/SANT DNA binding domain containing 1): caspase ratio to mock = 1.67 (active); viability ratio to mock = 0.9
MED26 (mediator complex subunit 26): caspase ratio to mock = 2.09 (active); viability ratio to mock = 1.04
NFYA (nuclear transcription factor Y subunit alpha): caspase ratio to mock = 0.85; viability ratio to mock = 0.94
RERE (arginine-glutamic acid dipeptide repeats): caspase ratio to mock = 1.06; viability ratio to mock = 1
AMDHD2 (amidohydrolase domain containing 2): caspase ratio to mock = 1.12; viability ratio to mock = 0.84
SH3GLB2 (SH3 domain containing GRB2 like, endophilin B2): caspase ratio to mock = 1.61 (active); viability ratio to mock = 0.96
AKAP8 (A-kinase anchoring protein 8): caspase ratio to mock = 0.81; viability ratio to mock = 0.9
PSMD13 (proteasome 26S subunit, non-ATPase 13): caspase ratio to mock = 0.87; viability ratio to mock = 0.9
THAP1 (THAP domain containing 1): caspase ratio to mock = 0.96; viability ratio to mock = 1.04
